Measured data: PubChem BioAssay AID1259317 (Drosophila RNAi Screening Center, 2017)
The deposit covers 418 reagents; below is a part drawn at random. 34 of all reagents (8.1%) were called active. 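Hits are two-sided: raised or lowered ATP both count; higher z-score means more ATP and more surviving cells.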 Entries without a mark were called inactive. The numbers tell different reagents against one gene apart. Not given: the amount of reagent.

- Purpose: 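Membrane and organelle genes affecting manganese toxicity, judged by cellular ATP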 (primary screen)
- Cells: Drosophila S2R+ cells
- Reagents: long dsRNA against Drosophila genes
- Time to read-out: 5 days (4 days knockdown, then 1 day metal)
- Conditions: manganese chloride added to 15 mM final for 1 day
- Read-out: 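Viability read as luminescent ATP after knockdown plus a day in 15 mM manganese chloride; z-score of the mean of three replicate plates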
- Reading the numbers: mean z-score, 3 replicates: higher = more ATP, more surviving cells under manganese
- Rule for the call: 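a knockdown is active when its averaged z-score lies above 1.5 or below -1.5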
- Meaning of the calls: active = hit: z-score beyond ±1.5 (ATP up or down); inactive = not a hit

gene	dsRNA no.	mean z-score, 3 replicates
Vps16A (GeneID 41107)	1	0.563
Vps16A (GeneID 41107)	2	-0.639
CG33128 (GeneID 326263)	1	-1.11
CG33128 (GeneID 326263)	2	-0.992
CG15533 (GeneID 43612)	1	1.02
CG15533 (GeneID 43612)	2	-0.441
mei-9 (GeneID 31373)	1	0.0411
CG10474 (GeneID 37211)	1	-0.976
Vha100-4 (GeneID 42214)	1	-0.205
Vha100-4 (GeneID 42214)	2	-0.0243
Dci (GeneID 38100)	1	1.14
Dci (GeneID 38100)	2	-0.12
CG7408 (GeneID 39991)	1	0.168
CG4860 (GeneID 41480)	1	-0.569
Vha100-5 (GeneID 34587)	1	0.62
Vha100-5 (GeneID 34587)	2	0.859
Vha100-5 (GeneID 34587)	3	1.77 (active)
Lerp (GeneID 43223)	1	1.04
Lerp (GeneID 43223)	2	0.59
Lerp (GeneID 43223)	3	0.0033
Xpd (GeneID 37414)	1	0.114
Xpd (GeneID 37414)	2	1.38
Xpd (GeneID 37414)	3	-0.0525
Xpc (GeneID 36697)	1	-0.158
Gba1a (GeneID 42796)	1	-0.432
Vps25 (GeneID 35847)	1	-0.71
Vps25 (GeneID 35847)	2	-0.116
Vps25 (GeneID 35847)	3	-1.32
CG12268 (GeneID 42833)	1	-0.863
CG12268 (GeneID 42833)	2	0.236
Idh (GeneID 44291)	1	-1.38
Idh (GeneID 44291)	2	-0.438
Idh (GeneID 44291)	3	-0.417
AP-1sigma (GeneID 42835)	1	0.604
AP-1sigma (GeneID 42835)	2	-0.356
Vha55 (GeneID 41550)	1	1.26
Vha55 (GeneID 41550)	2	-0.376
Vha55 (GeneID 41550)	3	2.11 (active)
Ppt2 (GeneID 34564)	1	0.791
Ppt2 (GeneID 34564)	2	-0.259
Ppt2 (GeneID 34564)	3	0.929
Vps26 (GeneID 31144)	1	-0.809
Vps26 (GeneID 31144)	2	-0.336
Acsl (GeneID 46068)	1	-2.01 (active)
Acsl (GeneID 46068)	2	-1.19
AP-1-2beta (GeneID 32987)	1	-1.69 (active)
AP-1-2beta (GeneID 32987)	2	-0.909
AP-1-2beta (GeneID 32987)	3	-0.289
Naglu (GeneID 46386)	1	0.922
Naglu (GeneID 46386)	2	-0.348
CG12355 (GeneID 2768954)	1	0.24
CG12355 (GeneID 2768954)	2	0.581
CG1827 (GeneID 35989)	1	-0.351
LManI (GeneID 34436)	1	-0.0238
LManI (GeneID 34436)	2	-0.161
LManI (GeneID 34436)	3	0.217
Lamp1 (GeneID 35411)	1	-0.612
Lamp1 (GeneID 35411)	2	-1.14
Lamp1 (GeneID 35411)	3	-1.06
Gba1b (GeneID 318721)	1	0.837
Sod1 (GeneID 39251)	1	-0.434
Sod1 (GeneID 39251)	2	1.96 (active)
Sod1 (GeneID 39251)	3	-0.916
Pex11c (GeneID 42751)	1	-0.448
CG17597 (GeneID 35140)	1	0.0436
CG17597 (GeneID 35140)	2	-0.297
gb (GeneID 43265)	1	0.624
gb (GeneID 43265)	2	-0.0122
Npc2h (GeneID 43649)	1	-2.23 (active)
hay (GeneID 39202)	1	0.565
hay (GeneID 39202)	2	2.7 (active)
hay (GeneID 39202)	3	1.3
Pex12 (GeneID 33256)	1	-0.171
Pex12 (GeneID 33256)	2	-0.66
CG6508 (GeneID 34493)	1	-0.696
ScpX (GeneID 44183)	1	1.8 (active)
Rpt6R (GeneID 43635)	1	0.148
Rpt6R (GeneID 43635)	2	1.02
LManII (GeneID 34437)	1	-0.0611
Vps45 (GeneID 41153)	1	-1.12
Vps45 (GeneID 41153)	2	-0.803
Vps45 (GeneID 41153)	3	-0.536
Hmgcl (GeneID 33978)	1	-0.61
CatB (GeneID 34198)	1	-0.442
CatB (GeneID 34198)	2	-0.545
CatB (GeneID 34198)	3	-0.51
Cln7 (GeneID 38813)	1	1.8 (active)
Cln7 (GeneID 38813)	2	-0.405
CG17134 (GeneID 34494)	1	2.72 (active)
Ids (GeneID 38423)	1	0.283
Hexo1 (GeneID 38528)	1	-0.198
CG9886 (GeneID 33431)	1	0.35
CG9886 (GeneID 33431)	2	0.0297
CG9886 (GeneID 33431)	3	0.3
Pmvk (GeneID 35255)	1	-0.146
Pmvk (GeneID 35255)	2	-0.922
CG5065 (GeneID 36860)	1	0.747
Vha68-3 (GeneID 34695)	1	-0.421
Vha68-3 (GeneID 34695)	2	3.33 (active)
Wdr24 (GeneID 43505)	1	-1.46
Wdr24 (GeneID 43505)	2	-0.614
CG31928 (GeneID 326175)	1	0.416
Amacr (GeneID 35337)	1	2.45 (active)
pic (GeneID 41611)	1	0.145
pic (GeneID 41611)	2	0.579
pic (GeneID 41611)	3	0.0553
vsg (GeneID 39137)	1	1.71 (active)
Chc (GeneID 32537)	1	-1.34
Chc (GeneID 32537)	2	-0.75
Chc (GeneID 32537)	3	-1.04
CG15534 (GeneID 43613)	1	-0.299
CG15534 (GeneID 43613)	2	-0.453
ry (GeneID 41605)	1	-0.408
ry (GeneID 41605)	2	0.0231
ry (GeneID 41605)	3	0.094
Gnptab (GeneID 35943)	1	-0.133
Mpv17 (GeneID 43831)	1	-0.473
Mpv17 (GeneID 43831)	2	-0.434
CG9577 (GeneID 33016)	1	-0.762
CG9577 (GeneID 33016)	2	0.0683
Dhrs4 (GeneID 38598)	1	-0.819
CG5731 (GeneID 34355)	1	-0.155
CG5731 (GeneID 34355)	2	0.249
CG5731 (GeneID 34355)	3	-1.17
Acsf2 (GeneID 33766)	1	-0.421
Acsf2 (GeneID 33766)	2	-0.0533
VhaAC39-2 (GeneID 42739)	1	0.00403
VhaAC39-2 (GeneID 42739)	2	-0.384
fdl (GeneID 250735)	1	-0.191
fdl (GeneID 250735)	2	0.462
CtsF (GeneID 40628)	1	-0.514
CtsF (GeneID 40628)	2	2.51 (active)
CtsF (GeneID 40628)	3	0.0799
Vha16-5 (GeneID 34482)	1	-0.592
Vha16-5 (GeneID 34482)	2	-0.766
Vha16-5 (GeneID 34482)	3	-0.422
Pex14 (GeneID 40294)	1	-0.614
Pex14 (GeneID 40294)	2	0.0406
Vps20 (GeneID 37581)	1	0.623
Vps20 (GeneID 37581)	2	-0.285
Vps20 (GeneID 37581)	3	0.0319
